The inconclusive results got no clear call from the source; some entries with a clear call stand among them for comparison. A call without a number means that no potency is given here. A potency beside an inconclusive call is a rough fit, not a confirmed value. The source made the active and inactive calls. Calls follow the shape of the dose curve; as a rule, active = well fitted cell-killing curve with a large enough effect; inconclusive = small, poorly fitted or top-dose-only effect; inactive = no such curve, though single readings can be large or run the other way.
Test: H358 Cell Viability Secondary Assay for qHTS Assay for Epigenetic Modulators: Round 2
Text: NIH Molecular Libraries Screening Centers Network [MLSCN] NIH Chemical Genomics Center [NCGC] MLSCN Grant: 1 X01 MH079860-01 Assay Provider: Elisabeth D. Martinez, University of Texas SW Medical Center NCGC Assay Overview: This secondary assay characterizes selected actives identified in the qHTS of the Locus Derepression (LDR) assay (PubChem AID 1865). The LDR assay detects the derepression of a GFP reporter that is stably integrated in a region of the genome of murine c127i mammary cells that is presumably silenced. Compounds that cause derepression of the locus to express GFP are identified by enumerating GFP positive cells using a laser-scanning microplate cytometer. Selected LDR actives were assayed for killing of H358 non-small cell lung carcinoma (NSCLC) cells. […] Cell viability was measured using a luminescence-based detection reagent that measures cellular ATP levels.
NCGC Assay Protocol Summary H358 cells were seeded at 125 cells/5 uL/well in white, solid bottom, 1536 well plates (Greiner). […] Plates were incubated 72 hours at 37deg C and 5% CO2, then 3.5 uL/well CellTiter-Glo(R) (Promega) detection reagent was added, plates were incubated at ambient temperature for 10 minutes and luminescence was measured by a ViewLux (Perkin Elmer) reader. […] A quantitative high-throughput screen identifies potential epigenetic modulators of gene expression. […]

| Compound | Potency |
| --- | --- |
| CN1CSC(=S)N(C)C1 | inconclusive: 35.3 µM [cytotoxic, single point] |
| COc1ccc(OC)c(N2C(=O)NC(=O)/C(=C\c3ccc([N+](=O)[O-])s3)C2=O)c1 | inactive |

Source: PubChem BioAssay AID493074 (National Center for Advancing Translational Sciences (NCATS), 2011)
